PubChem BioAssay AID1508588 – Peter MacCallum Cancer Centre | 2020
This is a random part of about 18,000 reagents. Of all reagents, 790 (4.4%) were called active. 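Calls rest on a combination of fold-change classes in drug and vehicle arms, not all shown here.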

Test: 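Which gene losses make BRAF-mutant melanoma cells more responsive to vemurafenib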 (primary screen)
Cells: human WM266.4 melanoma cells (BRAF V600 mutant)
Reagent: siRNA pool against human genes, 40 nM
Timing: 96 h from transfection to read-out
Conditions: vemurafenib 300 nM (about IC25), added 48 h after transfection, for 48 h; comparison arm got DMSO vehicle only
Measured: 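Ratios to non-targeting siRNA for cell gain, counted as DAPI nuclei after minus before drug and averaged over two replicates, and for absorbance-read medium lactate per cell; both binned into fold-change classes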
Scale: cell gain with vemurafenib: higher = more cell gain than with non-targeting siRNA; lactate per cell with vemurafenib: higher = more lactate made per cell
Call rule: 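a knock-down counts as enhancing when its fold-change classes with vehicle and with vemurafenib, taken together, show a stronger drug effect on cell gain or lactate per cell; exact class pairs not stated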
Calls: active = enhances vemurafenib effect; inactive = no enhancement seen

gene	cell gain with vemurafenib	lactate per cell with vemurafenib	outcome
LRCH3	0.16	0.08	active
MMEL1	0.22	1.38	inactive
RBMS3	0.77	0.43	inactive
GATAD1	0.18	0.58	active
GDNF	0.6	1.34	inactive
RBBP7	0.7	0.62	inactive
TRMT44	0.37	1.18	inactive
KRT28	1.07	0.6	inactive
EPPK1	1.34	0.78	inactive
POLR3K	0.53	1.05	inactive
WDR55	0.4	0.32	inactive
NBPF9	0.87	0.78	inactive
RUFY3	0.64	0.55	inactive
TCF3	0.61	0.42	active
WIPF3	0.51	0.53	inactive
OXR1	0.73	0.87	inactive
SPATA17	0.48	0.86	inactive
ZNF366	0.82	0.7	inactive
PASD1	0.75	0.86	inactive
PAK6	0.38	1.12	inactive
KLK4	0.22	1.68	inactive
TENT5A	0.61	1.12	inactive
TSPAN7	0.73	1.1	inactive
SLC16A4	0.78	1.17	inactive
KRTAP3-3	0.95	0.65	inactive
F8A2	0.4	1.19	inactive
TRIM2	1.01	0.8	inactive
PRC1	0	0.85	inactive
RABL3	0.65	0.88	inactive
PLD5	0.63	1.14	inactive
CCPG1	0.26	0.98	inactive
SH3BP5	0.73	1.04	inactive
SLC25A16	0.59	0.28	inactive
DPP7	0.02	1.27	active
ZNF385B	0.47	0.46	inactive
HOXB2	0.96	0.55	inactive
PAPLN	0.85	0.82	inactive
ZNF674	0.48	0.84	inactive
VEZT	0.44	1.27	inactive
PFAS	0.69	0.56	inactive
HEYL	0.92	0.68	inactive
OMA1	0.16	0.79	inactive
SPATS1	0.54	1.12	inactive
UCP2	0.56	0.42	inactive
ZFYVE27	0.61	0.8	inactive
FOXD4L6	0.86	0.6	inactive
MAPT	0.41	0.5	inactive
C4orf46	0.38	1.69	inactive
LPA	0.19	0.71	inactive
CPAMD8	0.77	1.1	inactive
ACTA2	0.82	0.94	inactive
SPATA22	1.05	0.54	inactive
KIZ	0.38	0.4	inactive
CD83	0.7	1.1	inactive
CD53	0.75	0.79	inactive
SPSB3	0.32	1.53	inactive
NDP	0.13	0.97	inactive
LRPPRC	0.51	1	inactive
CDH8	0.65	0.84	inactive
SLC5A10	0.32	1.34	inactive
TRAP1	0.52	1.11	inactive
KCNJ15	0.46	0.95	inactive
ACVRL1	0.28	2.32	inactive
CLSTN3	0.22	1.9	inactive
COL5A1	0.27	0.33	inactive
CCDC82	-0.06	0.6	inactive
RASAL2	0.39	1.38	inactive
PDZK1IP1	0.55	1.03	inactive
CST1	0.08	1.02	inactive
MRGPRD	0.82	0.67	inactive
RTBDN	0.32	0.65	inactive
CPED1	0.37	2.76	inactive
APBB1	-0.11	1.44	inactive
SETD2	0.59	0.94	inactive
NGRN	0.53	2.08	inactive
IRF4	0.52	1.16	inactive
GZF1	0.66	0.98	inactive
MRPL27	0.81	1.1	inactive
MEPE	0.53	1.36	inactive
IQCK	0.23	1.21	inactive
SNRNP27	0.56	0.74	inactive
ALDH5A1	0.7	0.74	inactive
APOL6	0.37	2.37	inactive
TP53I11	0.75	0.54	inactive

Laid out differently: 10 of the entries above.
{"gene": "KCNJ15", "cell gain with vemurafenib": 0.46, "lactate per cell with vemurafenib": 0.95, "outcome": "inactive"}
{"gene": "ACVRL1", "cell gain with vemurafenib": 0.28, "lactate per cell with vemurafenib": 2.32, "outcome": "inactive"}
{"gene": "CLSTN3", "cell gain with vemurafenib": 0.22, "lactate per cell with vemurafenib": 1.9, "outcome": "inactive"}
{"gene": "COL5A1", "cell gain with vemurafenib": 0.27, "lactate per cell with vemurafenib": 0.33, "outcome": "inactive"}
{"gene": "CCDC82", "cell gain with vemurafenib": -0.06, "lactate per cell with vemurafenib": 0.6, "outcome": "inactive"}
{"gene": "RASAL2", "cell gain with vemurafenib": 0.39, "lactate per cell with vemurafenib": 1.38, "outcome": "inactive"}
{"gene": "PDZK1IP1", "cell gain with vemurafenib": 0.55, "lactate per cell with vemurafenib": 1.03, "outcome": "inactive"}
{"gene": "CST1", "cell gain with vemurafenib": 0.08, "lactate per cell with vemurafenib": 1.02, "outcome": "inactive"}
{"gene": "MRGPRD", "cell gain with vemurafenib": 0.82, "lactate per cell with vemurafenib": 0.67, "outcome": "inactive"}
{"gene": "RTBDN", "cell gain with vemurafenib": 0.32, "lactate per cell with vemurafenib": 0.65, "outcome": "inactive"}
